# Primary screen of a compound library

The chains behind the UniProt entries cited, without tags or fusion partners.
UniProt E9BF75, entry or part of it: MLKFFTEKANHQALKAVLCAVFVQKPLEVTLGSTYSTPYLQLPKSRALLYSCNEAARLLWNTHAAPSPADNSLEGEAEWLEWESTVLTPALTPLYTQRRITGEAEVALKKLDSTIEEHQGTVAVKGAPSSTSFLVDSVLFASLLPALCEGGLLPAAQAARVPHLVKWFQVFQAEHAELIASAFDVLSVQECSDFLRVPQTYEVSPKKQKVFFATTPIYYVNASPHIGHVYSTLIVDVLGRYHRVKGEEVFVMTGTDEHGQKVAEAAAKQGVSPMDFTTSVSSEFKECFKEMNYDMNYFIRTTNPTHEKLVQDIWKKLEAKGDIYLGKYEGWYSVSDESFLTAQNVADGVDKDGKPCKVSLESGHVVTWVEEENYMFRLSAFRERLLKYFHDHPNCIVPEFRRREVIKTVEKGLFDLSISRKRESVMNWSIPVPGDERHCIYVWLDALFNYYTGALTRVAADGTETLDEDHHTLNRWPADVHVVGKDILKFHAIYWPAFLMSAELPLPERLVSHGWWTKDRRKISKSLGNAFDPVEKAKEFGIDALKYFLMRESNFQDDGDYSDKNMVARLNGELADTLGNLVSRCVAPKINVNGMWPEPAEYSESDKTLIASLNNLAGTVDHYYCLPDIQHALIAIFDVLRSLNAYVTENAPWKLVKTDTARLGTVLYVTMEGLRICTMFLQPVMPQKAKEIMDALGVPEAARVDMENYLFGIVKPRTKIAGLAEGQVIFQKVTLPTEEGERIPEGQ

The values are deposited in ChEMBL (CHEMBL3988442, “University of Dundee, Small-Polar-MMV Screening Library” (2021)).

All values are in %. The record does not define 0% and 100%; most values in the screen are far below 50% and negative numbers occur (in some assays of this library far below -100). The compounds are a random part of those screened. A dash means the value is not listed here; it may have been measured.

A: 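Assay on Mycobacterium tuberculosis, filed only as a heat shock assay from Cornell; the read-out is not stated. The concentration is filed as 10 mM, unlikely as a test dose, so the dose is not known. Direction is inferred from retests: higher values go with stronger inhibition. Size under these conditions: about 69,000 compounds, about 930 of them at 50% or above in at least one test.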
B: 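Primary screen of methionyl-tRNA synthetase; the read-out is not stated. Target: Methionyl-tRNA synthetase (putative), Leishmania donovani (UniProt E9BF75). The test concentration is not given. The values are filed as inhibition. Of about 68,000 compounds tested this way, about 24 (0.035%) reached 50% or more in at least one test.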
C: 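Whole-cell assay for inhibitors of Mycobacterium tuberculosis growth, labelled Cornell in the record; the read-out is not stated. The concentration is filed as 10 mM, unlikely as a test dose, so the dose is not known. The record gives no direction; compounds strong in two other growth screens of this library score well above the rest, so higher reads as stronger inhibition. Size under these conditions: about 53,000 compounds, about 900 of them at 50% or above in at least one test.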

Compound | A | B | C
Cn1nc(CNC(=O)CC#N)c2c1CN(CC1CC1)CC2.O=C(O)C(F)(F)F | 4.109 | - | 30.18
c1cnnc(N2CCCC2CNc2nc3ccccc3o2)c1 (configuration not stated) | -7.44 | 18.06 | -
O=C(O)C(F)(F)F.O=C(O)C(F)(F)F.O=C(O)C(F)(F)F.[H][C@@]12CN(Cc3ccco3)C[C@]1([H])OCCN2CCN1CCCC1 | -5.923 | - | 21.83
Cc1ccsc1CNC(=O)CCc1c(C)nc2cc(O)nn2c1C | 1.032 | 12.25 | -42.58
CN1CC[C@H]2OCC[C@@H](C(=O)NCc3ccco3)[C@@H]2C1 | - | -2.667 | -
Cc1ccccc1N1CCCN(C(=O)CCCn2ccnc2C)CC1 | 10.01 | 17.53 | -
COc1cc2c(cc1OC)S(=O)(=O)N(Cc1ccc(C)cc1)C2=O | 24 | 15.85 | 18.09
CC1c2ncc(COCC3CCOCC3)n2CCN1S(C)(=O)=O (configuration not stated) | -14.48 | 12.89 | -7.271
O=C(O)C(F)(F)F.O=C(O)C(F)(F)F.c1cncc(C2COC3(CCN(Cc4nccs4)CC3)C2)c1 (configuration not stated) | -9.404 | - | -
NC(=O)C1CCCN1Cc1cccc(NC(=O)c2cccs2)c1 (configuration not stated) | -19.05 | -1.061 | -41.91
CCn1c(C)nnc1SCCNc1cc(N2CCOCC2)ncn1 | -14.3 | 9.645 | -
CC(C)CC(=O)NCCCn1cncn1 | -9.332 | -2.957 | -
CC(=O)N1CCCN(C(=O)NCCCNS(C)(=O)=O)CC1 | -3.687 | -5.398 | -
CNC(=O)CS(=O)(=O)C1CCN(S(=O)(=O)c2cccnc2)CC1 | 3.959 | 8.741 | 8.147
Cc1noc(C)c1CN1CCn2cc(CN3CCCC3)nc2C1.O=C(O)C(F)(F)F.O=C(O)C(F)(F)F | -2.745 | - | 15.25
CC(=O)N1CCCN(C(=O)NCCOc2ccc3c(c2)OCO3)CC1 | 1.28 | 18.75 | -
Cc1cnc(C(=O)N2CCN(Cc3csc(C)n3)CC2)cn1 | -7.31 | 16.56 | -0.9638
O=C(CN1CCCC1Cn1cncn1)NCC1(c2ccccc2)CC1 (configuration not stated) | 7.109 | 13.88 | 36.54
Cn1nnc2c1C(COCc1ccccn1)CN(Cc1ccoc1)C2.O=C(O)C(F)(F)F.O=C(O)C(F)(F)F (configuration not stated) | -16.51 | - | 9.489
Cc1noc(CNC(=O)C2CSCCC(=O)N2)n1 (configuration not stated) | 1.518 | 9.859 | -26.81
CN(CC1CC1)C(=O)CN1CCCC1c1cnn(C)c1 (configuration not stated) | 11.36 | 6.355 | 9.984
CC(C)N1CCC2(CCCNC2)C1=O (configuration not stated) | - | 10.08 | -
O=C(NCc1cc2n(n1)CCCN(Cc1ccc(Cl)s1)C2)C1CCC1 | -5.745 | 17.39 | 7.711
O=C(NCC1OCCc2cn(CC3CCOCC3)nc21)c1ccsc1.O=C(O)C(F)(F)F (configuration not stated) | 3.391 | - | 4.521
O=C(NCc1ccccn1)[C@@H]1COC[C@H]2CN(C3CCC3)C[C@H]21 | - | 12.94 | -
Cc1cc(C)c(CNC(=O)N(C)Cc2ccc3c(c2)OCO3)c(=O)[nH]1 | -14.54 | 18.86 | -21.29
CC(C)c1nc(C2CCCN2C(=O)c2cnns2)no1 (configuration not stated) | 10.5 | 18.1 | -
c1ccc(CCn2cc(-c3nc(CN4CCOCC4)no3)nn2)cc1 | -15.05 | 12.27 | -
CCc1nc(C2CCCN(C(=O)c3cn(C)nc3C)C2)no1 (configuration not stated) | -12.95 | 8.571 | 3.029
Cc1ccc(CN(Cc2ccccn2)C(=O)[C@H]2CC[C@@H](N)C2)s1 | -28.24 | 17 | 15.33
NC(=O)C(NCc1nn(-c2ccccc2)c2c1CCC2)c1ccccc1 (configuration not stated) | 6.975 | 18.95 | -
CC(C(=O)N1CCN(c2ccccc2)CC1)n1cc(Br)cn1 (configuration not stated) | 0.08334 | -0.7538 | -
Cc1nc(CNC2CCCN(c3cccnn3)C2)no1 (configuration not stated) | -18.97 | 11.18 | -
CC(C)c1cnc(CNc2c(F)cccc2-n2cccn2)o1 | 8.854 | 13.27 | 10.63
O=C1N(c2ccsc2)CCC12CCCN(Cc1cccnc1)C2 (configuration not stated) | - | 15.07 | -
O=C(c1ccc(Cn2cnnn2)cc1)N1CCC(c2ccncc2)CC1 | -27.52 | 23.03 | 23.94
CCC(C)N(Cc1cccnc1)C(=O)CCSC (configuration not stated) | -6.841 | 7.781 | -12.37
O=C(c1ccoc1)N1CCC(O)(C(F)(F)F)CC1 | 1.942 | 16.33 | 16.76
CC(C)CNC(=O)CN1CCCC(c2ccc(C(=O)O)cc2)C1 (configuration not stated) | -2.498 | 6.267 | 18.08
CC(C)(C)OC(=O)N1CCC(C(=O)NCCNc2ncccn2)CC1 | -4.517 | 19.44 | -7.262
Cc1nc(C2CCNCC2)cc(N(C)Cc2cc3cc(F)ccc3[nH]2)n1 | 81.43 | 16.21 | 16.66
Cc1ccc2nc(NCCCN3CCCCCC3=O)n(C)c(=O)c2c1 | 0.2912 | 11.08 | 5.889
CC(C)COCCC(=O)Nc1c(-c2ccc(F)cc2)ncn1C | -12.86 | 6.069 | 20.58
CCc1noc(C)c1C(=O)N1CCCC1Cn1nc(C)cc1C (configuration not stated) | -13.02 | 10.24 | -7.796
CC(NC(=O)C1CCCCC1)c1cc(O)nc(-c2cccnc2)n1 (configuration not stated) | -6.935 | 13.37 | 47.16
O=C(NS(=O)(=O)c1cnn(-c2ccccc2F)c1)c1ccco1 | 10.14 | 6.522 | 34.8
CC(=O)N1CCC(c2cncc(Oc3ccccc3)n2)CC1 | 0.5671 | 5.226 | -
CC(C)(O)c1cn(C2CCN(C(=O)CCC(F)(F)F)CC2)nn1 | 1.679 | 11.06 | -0.2102
COc1ccc(N2CCC(N(C)C(=O)Nc3ccncc3)CC2)cc1 | -11.94 | 11.17 | -10.44
Cc1csc(CNC(=O)N2CCN(Cc3ccco3)CC2)n1 | -13.33 | 20 | 5.266
O=C(Cn1c(=O)n(Cc2ccco2)c2ncccc21)NC1CC1 | -3.318 | 8.706 | -
CNC(=O)c1ccc(CN2CCC(N(C)Cc3noc(C)n3)C2)cc1 (configuration not stated) | 1.724 | 11.11 | -
Cn1nc(CNC(=O)c2ccc3c(c2)OCO3)c2c1CCOC2 | -15.87 | 4.194 | -
CNCc1ccc(OCc2ccc3c(c2)OCCO3)cc1 | - | 5.099 | -
Cc1ccc(CC(=O)N(CC2CN(C)CCO2)c2nccs2)cn1 (configuration not stated) | -30.53 | 4.444 | -18.15
Cc1ccc(O)c(CNCC2CCCN2c2cccnn2)n1 (configuration not stated) | -20.13 | 12.57 | -
CCn1ccc(C(=O)NCCCN2CCOCC2)n1 | 5.974 | 7.087 | 4.112
Cc1c(C(=O)NCC2CCN(C)C2)n(C)c2c(C)cccc12 (configuration not stated) | 5.988 | 13.8 | -28.78
COCCCNC(=O)NCc1nc(C)c(C)o1 | -4.492 | - | -
COCC1CN(Cc2cc(C)on2)Cc2cn(CC3CCCC3)nc21 (configuration not stated) | - | 10.75 | -
COCCn1ccc2ccc(C(=O)N3CCN(C(C)=O)CC3)cc21 | 4.647 | 18.7 | 1.068
CC(=O)NCc1nnc2n1CCN(Cc1cccs1)C2.O=C(O)C(F)(F)F | 15.66 | - | 13.64
COCCN1C(=O)CC[C@]12CC[C@@H](NC(=O)c1cnccn1)CC2 | 4.508 | -45.38 | 8.611
[H][C@@]12CCN(S(=O)(=O)N(C)C)C[C@@]1([H])O[C@H](c1ccnc(C)n1)C2 | -9.589 | - | -
Cn1ccnc1-c1ccc(NCCC2COc3ccccc3O2)nn1 (configuration not stated) | 44.06 | 10.88 | 46.99
Cc1ccoc1C(=O)N1Cc2c(Cn3ccnc3)nn(C)c2C1.O=C(O)C(F)(F)F | -7.166 | - | -11.13
COC[C@@]12CCO[C@@H]1CCN(C(=O)Cc1cccc(F)c1)C2 | - | -10.62 | -
CC(=O)Nc1nc(C(=O)N2CCCC2c2ccc(Br)cc2)cs1 (configuration not stated) | 0.228 | 18.67 | -
O=C1C[C@H]2CC[C@@H](CN1)N2C(=O)CCc1ccccc1 | - | 14.88 | -